The list shows only some results of the screen, not a fair sample: it covers a few groups of compounds. Other doses and runs of a compound may be missing. T/C: endpoint of the treated group in % of that of the vehicle group. Some entries give survivors of the animals treated and no T/C: the source files T/C as zero there, which appears to mark a toxic dose or a test without result, not a measured value. Counts of survivors are from the toxicity check (mostly the fifth day) where no day follows; animals may have died later. Schedule codes are those of the source, read here as Q, the interval in days (D) or hours (H), X, the number of doses. Some schedule codes hold Z or #, which are not explained here. Where survival is the endpoint, the PubChem record calls one and a half times the control and up active, and a quarter to a half above the control has no call in these data; cut-offs in other NCI protocols can differ. Some doses were run more than once; the values are given in rising order. Some entries show no survivor count and are marked so; the dose need not have been tolerated.
System: L1210 leukemia ip in BDF1 mice, survival T/C
Assay: NCI In Vivo Anticancer Drug Screen. Data for tumor model L1210 Leukemia (intraperitoneal) in B6D2F1 (BDF1) mice
Conditions: T/C endpoint: mean survival time, higher T/C = longer survival

## CP(N)(Cl)(c1ccccc1)c1ccccc1
dose: 15.0 mg/kg/injection, schedule: Q01DX001 (ip), vehicle: saline
  T/C: 106 % of control
dose: 30.0 mg/kg/injection, schedule: Q01DX001 (ip), vehicle: saline
  T/C: 111 % of control
dose: 60.0 mg/kg/injection, schedule: Q01DX001 (ip), vehicle: saline
  survivor count: 0 of 6
dose: 100.0 mg/kg/injection, schedule: Q01DX001 (ip), vehicle: saline
  survivor count: 1 of 6
dose: 200.0 mg/kg/injection, schedule: Q01DX001 (ip), vehicle: saline
  survivor count: 0 of 6
dose: 400.0 mg/kg/injection, schedule: Q01DX001 (ip), vehicle: saline
  survivor count: 1 of 6

## CC(C)(N)CO[P+]([O-])=NC12CC3CC(CC(C3)C1)C2 (configuration not stated)
dose: 50.0 mg/kg/injection, schedule: Q01DX001 (ip), vehicle: Klucel (hydroxypropylcellulose) (HPC)
  T/C: 100 % of control
dose: 100.0 mg/kg/injection, schedule: Q01DX001 (ip), vehicle: Klucel (hydroxypropylcellulose) (HPC)
  T/C: 95 % of control
dose: 200.0 mg/kg/injection, schedule: Q01DX001 (ip), vehicle: Klucel (hydroxypropylcellulose) (HPC)
  T/C: 95 % of control

## O=C(O)CCc1ccc(Oc2cc([N+](=O)[O-])c([N+](=O)[O-])c([N+](=O)[O-])c2)cc1
dose: 100.0 mg/kg/injection, schedule: Q04DX002 (ip), vehicle: Klucel (hydroxypropylcellulose) (HPC)
  T/C: 93 % of control
dose: 200.0 mg/kg/injection, schedule: Q04DX002 (ip), vehicle: Klucel (hydroxypropylcellulose) (HPC)
  T/C: 93 % of control
dose: 400.0 mg/kg/injection, schedule: Q04DX002 (ip), vehicle: Klucel (hydroxypropylcellulose) (HPC)
  T/C: 97 % of control

## COP(=S)(Cl)OC
dose: 75.0 mg/kg/injection, schedule: Q01DX001 (ip), vehicle: saline
  T/C: 94 % of control
dose: 150.0 mg/kg/injection, schedule: Q01DX001 (ip), vehicle: saline
  T/C: 90 % of control
dose: 300.0 mg/kg/injection, schedule: Q01DX001 (ip), vehicle: saline
  survivor count: 1 of 6

## CC(C)(C)COP(=O)(O)N(CCCl)CCCl.NC1CCCCC1
dose: 62.5 mg/kg/injection, schedule: Q01DX Z (ip), vehicle: saline
  T/C: 102 % of control
dose: 125.0 mg/kg/injection, schedule: Q01DX Z (ip), vehicle: saline
  T/C: 112 % of control
dose: 250.0 mg/kg/injection, schedule: Q01DX Z (ip), vehicle: saline
  survivor count: 3 of 6

## ClC1CCC2C=CCC1S2 (configuration not stated)
dose: 25.0 mg/kg/injection, schedule: Q01DX009 (ip), vehicle: saline with Tween-80
  T/C: 92 % of control
dose: 50.0 mg/kg/injection, schedule: Q01DX009 (ip), vehicle: saline with Tween-80
  T/C: 96 % of control
dose: 100.0 mg/kg/injection, schedule: Q01DX009 (ip), vehicle: saline with Tween-80
  T/C: 92 and 94 % of control

## CCOP(=O)(Nc1ccccn1)OCC
dose: 100.0 mg/kg/injection, schedule: Q04DX003 (ip), vehicle: saline with Tween-80
  T/C: 91 % of control
dose: 200.0 mg/kg/injection, schedule: Q04DX003 (ip), vehicle: saline with Tween-80
  T/C: 94 % of control
dose: 400.0 mg/kg/injection, schedule: Q04DX003 (ip), vehicle: saline with Tween-80
  T/C: 88 % of control

## Cc1n[nH]c(N=[N+]=[N-])n1
dose: 100.0 mg/kg/injection, schedule: Q04DX002 (ip), vehicle: saline
  T/C: 101 % of control [survivor count not shown]
dose: 200.0 mg/kg/injection, schedule: Q04DX002 (ip), vehicle: saline
  T/C: 98 % of control [survivor count not shown]
dose: 400.0 mg/kg/injection, schedule: Q04DX002 (ip), vehicle: saline
  T/C: 96 % of control [survivor count not shown]
